{
  "sequences": {"note": "Sequences of proteins named here, by UniProt entry; tags and fusion partners are left off.", "UniProt P25490, whole entry": "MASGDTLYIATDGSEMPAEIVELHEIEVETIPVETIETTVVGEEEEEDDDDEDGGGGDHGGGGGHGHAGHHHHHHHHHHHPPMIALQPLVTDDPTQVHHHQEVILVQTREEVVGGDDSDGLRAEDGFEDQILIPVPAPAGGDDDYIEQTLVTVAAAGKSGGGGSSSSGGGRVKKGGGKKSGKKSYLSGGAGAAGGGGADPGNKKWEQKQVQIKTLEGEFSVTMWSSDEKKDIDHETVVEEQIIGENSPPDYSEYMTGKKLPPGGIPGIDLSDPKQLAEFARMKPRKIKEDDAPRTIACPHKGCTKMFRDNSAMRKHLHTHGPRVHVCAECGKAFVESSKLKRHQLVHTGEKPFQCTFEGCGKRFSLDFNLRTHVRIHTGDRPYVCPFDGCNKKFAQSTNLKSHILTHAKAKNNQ"},
  "source": "patent US20020088015A1",
  "about": "(published 2002)",
  "binders": {"B1": {"name": "GST-Ciao-1 (other)", "chain": "MKDSLVLLGRVPAHPDSRCWFLAWNPAGTLLASCGGDRRIRIWGTEGDSWICKSVLSEGHQRTVRKVAWSPCGNYLASASFDATTCIWKKNQDDFECVTTLEGHENEVKSVAWAPSGNLLATCSRDKSVWVWEVDEEDEYECVSVLNSHTQDVKHVVWHPSQELLASASYDDTVKLYREEEDDWVCCATLEGHESTVWSLAFDPSGQRLASCSDDRTVRIWRQYLPGNEQGVACSGSDPSWKCICTLSGFHSRTIYDIAWCQLTGALATACGDDAIRVFQEDPNSDPQQPTFSLTAHLHQAHSQDVNCVAWNPKEPGLLASCSDDGEVAFWKYQRPEGL", "notes": "not shown: glutathione-S-transferase from vector GEX-2TK"}},
  "target": "in vitro transcribed/translated ^35S-labeled YY1 (pGem7zf(+)-YY1) (UniProt P25490 1-414, ^35S-methionine labeled)",
  "experiment": "GST affinity matrix assay",
  "protocol": "All GST fusion proteins were purified as described (Kaelin Jr., W. G. et al. (1991) Cell 64:521-531) and the yield of each protein was determined by SDS-PAGE analysis and Coomassie blue staining. GST proteins bound to glutathione-agarose beads (Sigma, St. Louis, Mo.) were washed twice in NET-50 (20 mM Tris pH8,0, 1 mM EDTA, 50 mM NaCl) for 15 min at room temperature and were incubated in 200 μl binding buffer [25 mM HEPES pH7.5, 12.5 mM MgCl₂, 20% glycerol, 0.1%NP-40, 150 mM KCl, 1 mM dithiothreitol (DTT), 150 μg/ml bovine serum albumin (BSA), 200 μg per ml ethidium bromide (EtBr)] for 10 min at room temperature. In vitro transcription/translation reactions (Promega, Madison, Wis.) containing ³⁵S-methionine (1175 Ci/mmol) were programmed with pSP64-WT1 or pGem7zf(+)-YY1 and 5 μl was incubated with immobilized GST-fusion proteins for 1 hr at room temperature as indicated. The beads were washed five times with 1 ml washing buffer (20 mM Tris pH8.0, 100 mM NaCl, 1 mM EDTA, 0.5% NP-40, 200 μg/ml EtBr). Bound proteins were eluted with Laemmli sample buffer, separated on a 10% SDS-polyacrylamide gel which was soaked in the fluorographic solution “Amplify” purchased from Amersham and visualized by fluorography. […]",
  "data": [
    {"binder": "B1", "values": [
      {"measurement": "binding result", "result": "no binding"}
    ]}
  ]
}
